System: Mytilus galloprovincialis plantigrade larvae
Assay: Mussel larvae anti-settlement bioassay
Format: in vivo
Method: Mussel (Mytilus galloprovincialis) plantigrades were collected in juvenile aggregates during low neap tides at Memória beach, Matosinhos, Portugal (41°13′59″ N; 8°43′28″ W). In the laboratory, mussel plantigrade larvae (0.5–2 mm) were isolated in a binocular magnifier (Olympus SZX2-ILLT, Tokyo, Japan) to a petri dish with filtered seawater, and those with functional foot and competent exploring behavior were selected to the bioassays. Compounds were screened at 50 µM in 24-well microplates with 4-well replicates per condition and 5 larvae per well, for 15 h, in the darkness at 18 ± 1 °C, according to the previously reported. All compounds that caused more than 60% of settlement inhibition (≤40% of settlement) in the screening bioassay were considered active and selected for the determination of the semi-maximum response concentration that inhibited 50% of the larval settlement (EC50), at compounds concentrations of 3.125, 6.25, 12.5, 25, 50, 100, and 200 μM.
Data from anti-settlement, antibacterial, and anti-microalgal bioassay were analyzed by one-way analysis of variance (ANOVA), followed by a multi-comparisons Dunnett’s test against negative control. For all of the bioassays, the half-maximum response concentration (EC50) values for each compound, when applicable, were calculated using probit regression analysis. Significance was considered at p < 0.01, and 95% lower and upper confidence limits (95% LCL; UCL). The software IBM SPSS Statistics 26 (Armonk, New York, NY, USA) was used for statistical analysis.

SMILES | LC50/EC50 therapeutic ratio
COc1cc(C(C)=O)cc(OC)c1OCc1cn(-c2ccc(Cl)cc2)nn1 [Compound 6a, 1-(4-((1-(4-Chlorophenyl)-1H-1,2,3-triazol-4-yl)methoxy)-3,5-dimethoxyphenyl)ethan-1-one] | >6.93
COc1cc(C(C)=O)cc(OC)c1OCc1cn([C@H]2O[C@@H](CO)[C@H](O)[C@@H](O)[C@@H]2NC(C)=O)nn1 [Compound 9a, N-((2S,3S,4S,5R,6S)-2-(4-((4-Acetyl-2,6-dimethoxyphenoxy)methyl)-1H-1,2,3-triazol-1-yl)-4,5-dihydroxy-6-(hydroxymethyl)tetrahydro-2H-pyran-3-yl)acetamide] | >9.67
COc1cc(C(C)=O)cc(OC)c1OCc1cn(CCCO)nn1 [Compound 7a, 1-(4-((1-(3-Hydroxypropyl)-1H-1,2,3-triazol-4-yl)methoxy)-3,5-dimethoxyphenyl)ethan-1-one] | >4.98

— publication PMC8704891, “Natural Benzo/Acetophenones as Leads for New Synthetic Acetophenone Hybrids Containing a 1,2,3-Triazole Ring as Potential Antifouling Agents” (Marine Drugs, 2021)
